This experiment relates to P388 leukemia ip, CD2F1 mice, survival T/C. In words: NCI In Vivo Anticancer Drug Screen. Data for tumor model P388 Leukemia (intraperitoneal) in CD2F1 (CDF1) mice. To be noted: T/C endpoint: median survival time, higher T/C = longer survival.
[1] abbreviates: dose: 200.0 mg/kg/injection, schedule: Q01DX005 (ip), vehicle: saline with Tween-80.
Where [2] appears, read: dose: 100.0 mg/kg/injection, schedule: Q01DX005 (ip), vehicle: saline.
Setting [3] is: dose: 200.0 mg/kg/injection, schedule: Q01DX005 (ip), vehicle: saline.
Where [4] appears, read: dose: 3.13 mg/kg/injection, schedule: Q01DX005 (ip), vehicle: saline with Tween-80.
Setting [5] is: dose: 6.25 mg/kg/injection, schedule: Q01DX005 (ip), vehicle: saline with Tween-80.
Setting [6] is: dose: 12.5 mg/kg/injection, schedule: Q01DX005 (ip), vehicle: saline with Tween-80.
The mark [7] stands for this setting: dose: 25.0 mg/kg/injection, schedule: Q01DX005 (ip), vehicle: saline with Tween-80.
Where [8] appears, read: dose: 50.0 mg/kg/injection, schedule: Q01DX005 (ip), vehicle: saline with Tween-80.
Setting [9] is: dose: 100.0 mg/kg/injection, schedule: Q01DX005 (ip), vehicle: saline with Tween-80.
Setting [10] is: dose: 50.0 mg/kg/injection, schedule: Q01DX001 (ip), vehicle: saline.
The mark [11] stands for this setting: dose: 100.0 mg/kg/injection, schedule: Q01DX001 (ip), vehicle: saline.
[12] abbreviates: dose: 200.0 mg/kg/injection, schedule: Q01DX001 (ip), vehicle: saline.
The mark [13] stands for this setting: dose: 400.0 mg/kg/injection, schedule: Q01DX001 (ip), vehicle: saline.
Where [14] appears, read: dose: 240.0 mg/kg/injection, schedule: Q01DX005 (ip), vehicle: saline with Tween-80.
Where [15] appears, read: dose: 1.0 mg/kg/injection, schedule: Q01DX005 (ip), vehicle: saline with Tween-80.
The mark [16] stands for this setting: dose: 60.0 mg/kg/injection, schedule: Q01DX005 (ip), vehicle: saline with Tween-80.

The list shows only some results of the screen, not a fair sample: it gathers tests that were run many times, whatever their T/C, doses with no T/C, and many T/C values between a quarter and a half above the control. Other doses and runs of a compound stand elsewhere. T/C gives the treated animals as a percentage of the vehicle group. Some doses have a count of surviving animals in place of a T/C: the source holds a T/C of zero for them, seemingly a mark for toxic or unscored doses. Some doses without a T/C left all or most animals alive at the check, yet need not have been tolerated: survival well below the control is almost never listed, so the zero probably covers shortened survival too. Counts of survivors are from the toxicity check (mostly the fifth day) where no day follows; animals may have died later. Schedule codes are those of the source, read here as Q, the interval in days (D) or hours (H), X, the number of doses. Some entries were tested several times; the values are given in rising order. For survival time, this PubChem deposit counts one and a half times the control or more as active, and values a quarter to a half above the control carry no call in these data; other NCI protocols may use other cut-offs.

Regarding `COc1c(Br)c2c(c(OC)c1OC)-c1ccc(OC)c(=O)cc1C(NC(C)=O)CC2` (configuration not stated), the T/C (dose: 0.39 mg/kg/injection, schedule: Q01DX009 (ip), vehicle: Klucel (hydroxypropylcellulose) (HPC)) was 133 % of control and the T/C (dose: 0.78 mg/kg/injection, schedule: Q01DX009 (ip), vehicle: Klucel (hydroxypropylcellulose) (HPC)) is 148 % of control. For the same compound, the survivor count was 3 of 5 (dose: 6.25 mg/kg/injection, schedule: Q01DX009 (ip), vehicle: Klucel (hydroxypropylcellulose) (HPC)); 0 of 5 (dose: 12.5 mg/kg/injection, schedule: Q01DX009 (ip), vehicle: Klucel (hydroxypropylcellulose) (HPC)); 0 of 5 (dose: 25.0 mg/kg/injection, schedule: Q01DX009 (ip), vehicle: Klucel (hydroxypropylcellulose) (HPC)).

`CN=C1NC(=O)C(c2ccccc2)S1` (configuration not stated): the survivor count under setting [1] is listed as 2 of 6.

For `CC1C(c2ccccc2)OCN1C` (configuration not stated), under setting [2], the T/C is 130 % of control; the survivor count is 0 of 6 and 3 of 6. For the same compound, the survivor count under setting [3] is 1 of 6 and 4 of 6.

For `CCOC(=O)c1conc1C`, the survivor count (dose: 100.0 mg/kg/injection, schedule: Q01DX009 (ip), vehicle: saline) is listed as 1 of 6 and the survivor count (dose: 200.0 mg/kg/injection, schedule: Q01DX009 (ip), vehicle: saline) is reported as 0 of 6.

With `CCn1c2ccccc2c2cc(N=Nc3ccc(O)c4ccccc34)ccc21`, under “dose: 50.0 mg/kg/injection, schedule: Q01DX009 (ip), vehicle: Klucel (hydroxypropylcellulose) (HPC)”, the survivor count was 6 of 6.

In the case of `[BH]n1cccn1.[CH3][Sn]([CH3])[N]=C=S`, for the setting “dose: 400.0 mg/kg/injection, schedule: Q04DX003 (ip), vehicle: saline”, the survivor count is on record as 2 of 6.

On to `CC1CC(=O)c2c(CO)nn(CCCO)c2C1` (configuration not stated), for which the survivor count is recorded as 5 of 6 (dose: 120.0 mg/kg/injection, schedule: Q01DX005 (ip), vehicle: saline) and 5 of 6 (dose: 240.0 mg/kg/injection, schedule: Q01DX005 (ip), vehicle: saline).

Turning to `CC(c1ccccc1)[P+](c1ccccc1)(c1ccccc1)c1ccccc1` (configuration not stated), the T/C (dose: 3.13 mg/kg/injection, schedule: Q01DX009 (ip), vehicle: saline) is 126 % of control. For the same compound, the survivor count (dose: 6.25 mg/kg/injection, schedule: Q01DX009 (ip), vehicle: saline) is reported as 5 of 6; the survivor count (dose: 12.5 mg/kg/injection, schedule: Q01DX009 (ip), vehicle: saline) is 1 of 6; the survivor count (dose: 25.0 mg/kg/injection, schedule: Q01DX009 (ip), vehicle: saline) is listed as 0 of 6; the survivor count (dose: 50.0 mg/kg/injection, schedule: Q01DX009 (ip), vehicle: saline) is listed as 0 of 6.

On to `Cc1coc2c1CC1(C)C(CCC(OC(=O)CC(C)C)C1C)C2=O` (configuration not stated) (tested in a mixture with another compound), for which the survivor count (dose: 400.0 mg/kg/injection, schedule: Q01DX009 (ip), vehicle: Klucel (hydroxypropylcellulose) (HPC)) was 0 of 6.

Turning to `O=C(Nc1ccc(CC2=NCCCN2)cc1)c1ccc(C(=O)Nc2ccc(CC3=NCCCN3)cc2)cc1`, the survivor count is reported as 0 of 6 under setting [4]; 0 of 6 under setting [5]; 0 of 6 under setting [6]; 0 of 6 under setting [7]; 0 of 6 under setting [8]; 0 of 6 under setting [9]. In addition, under setting [1], the survivor count is given as 0 of 6.

For `O=[N+]([O-])c1cnc2n(O)cccc1-2`, the survivor count (dose: 400.0 mg/kg/injection, schedule: Q01DX001 (ip), vehicle: saline with Tween-80) is 3 of 6.

For the compound `O=C1C(=O)c2cccc([N+](=O)[O-])c2-c2ccccc21`, under setting [8], the T/C was 125 % of control. The survivor count under setting [1] is given as 2 of 5.

For the compound `CCOC(=O)/[C](=N\N=P(N(C)C)(N(C)C)N(C)C)[Sb]([CH3])[CH3]`, the survivor count by setting is: under setting [10], 2 of 6; under setting [11], 3 of 6; under setting [12], 0 of 6; under setting [13], 0 of 6.

Consider `CCN(CC)C(=O)C1CN2CCc3cc(OC)c(OC)cc3C2CC1O` (configuration not stated), for which the T/C (dose: 200.0 mg/kg/injection, schedule: Q01DX005 (ip), vehicle: Klucel (hydroxypropylcellulose) (HPC)) was 126 % of control. Besides, under “dose: 400.0 mg/kg/injection, schedule: Q01DX005 (ip), vehicle: Klucel (hydroxypropylcellulose) (HPC)”, the survivor count is recorded as 1 of 6.

Consider `NC(CCC(=O)NC(CS)C(=O)NCC(=O)O)C(=O)O.[CH2-]CCC.[CH2-]CCC.[CH2-]CCC.[CH2-]CCC.[Ti+4]` (configuration not stated), for which, under setting [1], the survivor count was 6 of 6.

In the case of `CC(=O)[O][Sn]([CH3])([CH3])[CH3]`, the survivor count by setting is: (dose: 1.5 mg/kg/injection, schedule: Q01DX009 (ip), vehicle: saline) 6 of 6; (dose: 3.0 mg/kg/injection, schedule: Q01DX009 (ip), vehicle: saline) 0 of 6.

For `O=C(C1CO1)C(Cl)(Cl)Cl` (configuration not stated), under setting [10], the T/C is 131 % of control. Besides, the survivor count reads like this: under setting [11], 3 of 6; under setting [12], 0 of 6; under setting [13], 0 of 6.

As for `CCCCCCCCCCCC[S+](C)CCCCCCCC` (configuration not stated), the T/C by setting is: (dose: 1.56 mg/kg/injection, schedule: Q01DX005 (ip), vehicle: saline with Tween-80) 126 % of control; under setting [4], 128 % of control. The survivor count reads like this: under setting [5], 4 of 5 and 5 of 6; under setting [6], 1 of 5; under setting [7], 0 of 5; under setting [8], 0 of 5; under setting [9], 0 of 5; under setting [1], 0 of 5.

Turning to `Nc1ccc2c(SCCSc3c4ccccc4nc4cc(N)ccc34)c3ccccc3nc2c1`, the survivor count under setting [14] is listed as 3 of 6.

Consider `CC1CCC[N+](C)([B-](F)(F)F)C1` (configuration not stated), for which, under setting [3], the survivor count is 0 of 6.

Consider `CCOC(=O)Nc1cc2c(c(N)n1)N=C(c1ccccc1)C(C)N2` (configuration not stated), for which the T/C runs as follows: (dose: 0.5 mg/kg/injection, schedule: Q01DX005 (ip), vehicle: saline with Tween-80) 127 and 146 % of control; under setting [15], 138 % of control. Moreover, the survivor count under setting [15] was 5 of 6; the survivor count (dose: 1.5 mg/kg/injection, schedule: Q01DX005 (ip), vehicle: saline with Tween-80) was 2 of 6 and 6 of 6.

`C=C1C(=O)OC2CC3(C)OC3CC/C(C)=C/C(OC(C)=O)C12` (configuration not stated): the survivor count under setting [9] was 2 of 5 and the survivor count under setting [1] is 0 of 5.

In the case of `CCc1nc(N)nc(N)c1-c1ccc(OC)c([N+](=O)[O-])c1`, the T/C under setting [16] is 142 and 146 % of control.

For `O=C(NC1(Sc2ccccc2)CC1)c1ccc(Cl)cc1`, the survivor count by setting is: (dose: 60.0 mg/kg/injection, schedule: Q01DX005 (ip), vehicle: Klucel (hydroxypropylcellulose) (HPC)) 6 of 6; (dose: 120.0 mg/kg/injection, schedule: Q01DX005 (ip), vehicle: Klucel (hydroxypropylcellulose) (HPC)) 6 of 6; (dose: 240.0 mg/kg/injection, schedule: Q01DX005 (ip), vehicle: Klucel (hydroxypropylcellulose) (HPC)) 1 of 6.

On to `NC(CS)=NCC12CC3CC(CC(C3)C1)C2`, for which the survivor count runs as follows: under setting [16], 0 of 6; (dose: 120.0 mg/kg/injection, schedule: Q01DX005 (ip), vehicle: saline with Tween-80) 0 of 6; under setting [14], 0 of 6.

The values above are taken from PubChem BioAssay AID330 (DTP/NCI, 2004).
